From paper PMC11500415, “Chemical inhibition of stomatal differentiation by perturbation of the master-regulatory bHLH heterodimer via an ACT-Like domain” (Nature Communications, 2024)
No constants are given. Whether binding was seen depends on the method and setting. Binding calls can cover weak binding; strength is not graded here. Tags and fused reporters may be left off the sequences shown.

Biological target: FAMA lacking its N-terminal activation domain, yeast two-hybrid fusion (Arabidopsis thaliana)
Assay: two-hybrid; Matchmaker Gal4 system, yeast AH109; growth on SD -Trp -Leu -His with 3-AT (1 mM) and quantitative α-galactosidase assay; with 0, 10, 50, 100 μM Stomidazolone (diminishes, dose-dependent) or SIM3* (no effect)

binding: binds
B1: SCREAM (SCRM), yeast two-hybrid fusion (protein, UniProt Q9LSE2 1-494)
chain: MGLDGNNGGGVWLNGGGGEREENEEGSWGRNQEDGSSQFKPMLEGDWFSSNQPHPQDLQMLQNQPDFRYFGGFPFNPNDNLLLQHSIDSSSSCSPSQAFSLDPSQQNQFLSTNNNKGCLLNVPSSANPFDNAFEFGSESGFLNQIHAPISMGFGSLTQLGNRDLSSVPDFLSARSLLAPESNNNNTMLCGGFTAPLELEGFGSPANGGFVGNRAKVLKPLEVLASSGAQPTLFQKRAAMRQSSGSKMGNSESSGMRRFSDDGDMDETGIEVSGLNYESDEINESGKAAESVQIGGGGKGKKKGMPAKNLMAERRRRKKLNDRLYMLRSVVPKISKMDRASILGDAIDYLKELLQRINDLHNELESTPPGSLPPTSSSFHPLTPTPQTLSCRVKEELCPSSLPSPKGQQARVEVRLREGRAVNIHMFCGRRPGLLLATMKALDNLGLDVQQAVISCFNGFALDVFRAEQCQEGQEILPDQIKAVLFDTAGYAGMI
